Measurements: publication PMC5992170, “Modular ssDNA binding and inhibition of telomerase activity by designer PPR proteins”

Tests used:
[1] = tested on: T1, cPPR-Telo1 (synthetic construct); assay: EMSA; conditions: off-target control; EMSA: 10 mM HEPES pH 8.0, 1 mM EDTA, 50 mM KCl, 2 mM DTT, 0.1 mg/ml BSA, 0.02% Tween-20, room temperature 30 min, 0.83 uM probe; recombinant protein; protein details: GST-His (pETM30); label: 5'-fluorescein via hexaethyleneglycol spacer; single-stranded DNA
T1 sequence (looked up, limits assumed): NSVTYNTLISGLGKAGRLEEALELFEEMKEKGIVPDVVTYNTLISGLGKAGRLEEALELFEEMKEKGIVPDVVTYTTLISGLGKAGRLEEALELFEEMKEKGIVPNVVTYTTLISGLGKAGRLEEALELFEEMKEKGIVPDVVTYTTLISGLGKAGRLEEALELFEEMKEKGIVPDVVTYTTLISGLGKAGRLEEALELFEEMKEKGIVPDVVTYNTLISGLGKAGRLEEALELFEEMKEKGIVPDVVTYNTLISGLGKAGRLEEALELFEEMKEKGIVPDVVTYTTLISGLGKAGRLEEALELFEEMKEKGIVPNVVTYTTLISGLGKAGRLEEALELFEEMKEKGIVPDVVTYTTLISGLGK

[2] = tested on: T1, cPPR-Telo1 (synthetic construct); assay: competition with a labelled probe; conditions: up to 100:1 over telomeric probe; EMSA: 10 mM HEPES pH 8.0, 1 mM EDTA, 50 mM KCl, 2 mM DTT, 0.1 mg/ml BSA, 0.02% Tween-20, room temperature 30 min, 0.83 uM probe; recombinant protein; protein details: GST-His (pETM30); single-stranded DNA

Sequence | binding result [1] | binding result [2]
CCCCCCCCCC [Poly(C)] | no binding | 
CTAGACCTGTCATCA [non-specific competitor ssDNA] |  | no binding

The exact form of at least one protein or probe is not confirmed. No signal at the amounts used counts as a negative. At least one verdict rests on a figure or table, not on a statement of the authors. Where a protein sequence is shown, tags need not be part of it.
